Laboratory results: PubChem BioAssay AID504774 (Drosophila RNAi Screening Center, 2011)
Screen: 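Genes required for cells to withstand methyl methanesulphonate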 (primary screen). System: Drosophila Kc167 cells. Reagent: long dsRNA against Drosophila genes, about 0.25 µg dsRNA per well. Duration: about 6 days: 3 days knock-down, then 3 days with or without MMS. Conditions: methyl methanesulphonate 0.004% (w/v) for 3 days after knock-down. Measurement: 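ATP-dependent luminescence as a measure of live cells in MMS-exposed wells, quantile normalised within each plate, with replicate values also given as a mean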. Direction: mean viability with MMS and viability with MMS: higher = more surviving cells after MMS.
The deposit covers about 23,000 reagents; shown is an unselected part of those that have a named target and a result. 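Values are quantile-normalised luminescence on an arbitrary scale; higher means more cells surviving MMS.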 A plus sign joins genes that one reagent is predicted to hit.

predicted target,PubChem SID,mean viability with MMS,"viability with MMS, replicate 1","viability with MMS, replicate 2"
CG11581,SID104199199,3.59e6,4.08e6,4.06e6
BHD,SID104190809,3.66e6,4.31e6,4.00e6
BHD,SID104202192,3.55e6,4.09e6,3.96e6
ppk15,SID104194525,3.27e6,3.69e6,3.70e6
Naa20B,SID104201185,3.56e6,4.08e6,4.01e6
cort,SID104181940,1.74e6,3.91e6,3.90e6
mRpL4,SID104183354,3.56e6,4.21e6,3.88e6
CG4988,SID104182592,3.43e6,3.83e6,3.93e6
Pdk1,SID104188474,3.31e6,3.81e6,3.73e6
PIG-L,SID104195369,3.55e6,4.15e6,3.91e6
Cpr64Ab,SID104188253,3.48e6,3.90e6,4.00e6
Prps,SID104188786,3.33e6,3.77e6,3.76e6
Prps,SID104190499,3.37e6,3.77e6,3.81e6
Prps,SID104190500,3.42e6,3.79e6,3.95e6
Lcp65APsi,SID104188587,3.47e6,4.04e6,3.82e6
Lcp65APsi,SID104190134,3.72e6,4.22e6,4.20e6

Reformatted: results already given
| predicted target | PubChem SID | mean viability with MMS | viability with MMS, replicate 1 | viability with MMS, replicate 2 |
| --- | --- | --- | --- | --- |
| cort | SID104181940 | 1.74e6 | 3.91e6 | 3.90e6 |
| mRpL4 | SID104183354 | 3.56e6 | 4.21e6 | 3.88e6 |

The list goes on.
predicted target,PubChem SID,mean viability with MMS,"viability with MMS, replicate 1","viability with MMS, replicate 2"
Ip259,SID104183144,3.33e6,3.86e6,3.62e6
Slbp,SID104196655,3.47e6,3.90e6,3.94e6
Cip4,SID104187883,3.45e6,3.86e6,3.95e6
Cip4,SID104188261,3.47e6,3.92e6,3.94e6
Cip4,SID104201410,3.27e6,3.79e6,3.80e6
Cul1,SID104187437,3.42e6,3.89e6,3.80e6
fuss,SID104196992,3.69e6,4.12e6,4.23e6
fuss,SID104201193,3.47e6,3.99e6,3.92e6
CG9624,SID104196315,3.32e6,3.78e6,3.74e6
geminin,SID104184776,2.82e6,3.41e6,3.46e6
CG42496 + Ppcdc,SID104183678,3.41e6,3.77e6,4.00e6
Pp2A-29B,SID104183192,3.79e6,4.23e6,4.40e6
